# Measurements from article PMC11294477.
# Sequences of proteins named here, by UniProt entry; tags and fusion partners are left off. A change or cut given only in a name is not applied to a line headed by its entry.
# UniProt Q9UPV7: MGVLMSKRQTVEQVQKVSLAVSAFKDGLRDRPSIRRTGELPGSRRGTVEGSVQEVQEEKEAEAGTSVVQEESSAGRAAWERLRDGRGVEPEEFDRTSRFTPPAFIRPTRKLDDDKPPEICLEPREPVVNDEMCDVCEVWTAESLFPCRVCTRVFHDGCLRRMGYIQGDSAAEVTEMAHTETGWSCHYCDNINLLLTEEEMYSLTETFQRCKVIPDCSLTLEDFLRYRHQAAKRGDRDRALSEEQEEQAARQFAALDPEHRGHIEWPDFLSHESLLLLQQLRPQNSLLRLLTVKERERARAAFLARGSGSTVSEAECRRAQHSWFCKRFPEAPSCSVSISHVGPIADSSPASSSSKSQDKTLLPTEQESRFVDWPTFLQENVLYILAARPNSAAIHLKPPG
# UniProt P63096: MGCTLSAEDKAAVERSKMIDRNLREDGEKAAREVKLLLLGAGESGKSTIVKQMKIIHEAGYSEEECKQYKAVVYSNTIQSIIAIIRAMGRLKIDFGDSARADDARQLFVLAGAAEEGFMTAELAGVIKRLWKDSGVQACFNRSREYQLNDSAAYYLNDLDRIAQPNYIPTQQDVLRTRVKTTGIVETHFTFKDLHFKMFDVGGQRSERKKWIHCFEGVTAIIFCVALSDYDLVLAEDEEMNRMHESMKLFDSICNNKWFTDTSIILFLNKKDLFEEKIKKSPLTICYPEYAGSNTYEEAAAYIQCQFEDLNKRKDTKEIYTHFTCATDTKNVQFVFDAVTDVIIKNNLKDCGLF
# UniProt P50148: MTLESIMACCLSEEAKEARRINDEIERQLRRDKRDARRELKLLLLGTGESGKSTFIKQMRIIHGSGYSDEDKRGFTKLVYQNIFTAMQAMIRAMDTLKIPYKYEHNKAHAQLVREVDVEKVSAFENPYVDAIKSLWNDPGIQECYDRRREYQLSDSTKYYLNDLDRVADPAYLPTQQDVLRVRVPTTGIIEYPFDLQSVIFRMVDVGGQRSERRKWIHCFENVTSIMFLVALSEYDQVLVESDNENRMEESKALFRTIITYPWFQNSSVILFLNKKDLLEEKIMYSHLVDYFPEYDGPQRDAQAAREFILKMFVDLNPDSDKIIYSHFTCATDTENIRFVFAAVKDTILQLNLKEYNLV
# No constants are given. Whether binding was seen depends on the method and setting. Binding seen in cells or lysates may run through a third protein. Some results given as binding are weak or reduced against the parent protein; the word gives no strength. For some of these results: Tags and fused reporters may be left off the sequences shown.
# Key:
# [1] = target: GST-tagged GINIP protein (UniProt Q9UPV7); assay: pull-down; HUVECs expressing GluGlu-tagged Gα (Gq together with Ric8A), ± FSS (also after PECAM-1 or LPHN2 siRNA), lysed in 10 mM Tris-HCl pH 7.5, 150 mM NaCl, 1% Triton X-100, 5 mM DTT with 2 µg/ml GST-GINIP or GST-GRK2N; glutathione beads 10 min at 4 °C; western blot; only the target purified
# [2] = target: T1, LPHN2-GFP (UniProt O95490); assay: co-IP; LPHN2-GFP with Gα proteins containing internal GluGlu epitope tags
# T1 sequence: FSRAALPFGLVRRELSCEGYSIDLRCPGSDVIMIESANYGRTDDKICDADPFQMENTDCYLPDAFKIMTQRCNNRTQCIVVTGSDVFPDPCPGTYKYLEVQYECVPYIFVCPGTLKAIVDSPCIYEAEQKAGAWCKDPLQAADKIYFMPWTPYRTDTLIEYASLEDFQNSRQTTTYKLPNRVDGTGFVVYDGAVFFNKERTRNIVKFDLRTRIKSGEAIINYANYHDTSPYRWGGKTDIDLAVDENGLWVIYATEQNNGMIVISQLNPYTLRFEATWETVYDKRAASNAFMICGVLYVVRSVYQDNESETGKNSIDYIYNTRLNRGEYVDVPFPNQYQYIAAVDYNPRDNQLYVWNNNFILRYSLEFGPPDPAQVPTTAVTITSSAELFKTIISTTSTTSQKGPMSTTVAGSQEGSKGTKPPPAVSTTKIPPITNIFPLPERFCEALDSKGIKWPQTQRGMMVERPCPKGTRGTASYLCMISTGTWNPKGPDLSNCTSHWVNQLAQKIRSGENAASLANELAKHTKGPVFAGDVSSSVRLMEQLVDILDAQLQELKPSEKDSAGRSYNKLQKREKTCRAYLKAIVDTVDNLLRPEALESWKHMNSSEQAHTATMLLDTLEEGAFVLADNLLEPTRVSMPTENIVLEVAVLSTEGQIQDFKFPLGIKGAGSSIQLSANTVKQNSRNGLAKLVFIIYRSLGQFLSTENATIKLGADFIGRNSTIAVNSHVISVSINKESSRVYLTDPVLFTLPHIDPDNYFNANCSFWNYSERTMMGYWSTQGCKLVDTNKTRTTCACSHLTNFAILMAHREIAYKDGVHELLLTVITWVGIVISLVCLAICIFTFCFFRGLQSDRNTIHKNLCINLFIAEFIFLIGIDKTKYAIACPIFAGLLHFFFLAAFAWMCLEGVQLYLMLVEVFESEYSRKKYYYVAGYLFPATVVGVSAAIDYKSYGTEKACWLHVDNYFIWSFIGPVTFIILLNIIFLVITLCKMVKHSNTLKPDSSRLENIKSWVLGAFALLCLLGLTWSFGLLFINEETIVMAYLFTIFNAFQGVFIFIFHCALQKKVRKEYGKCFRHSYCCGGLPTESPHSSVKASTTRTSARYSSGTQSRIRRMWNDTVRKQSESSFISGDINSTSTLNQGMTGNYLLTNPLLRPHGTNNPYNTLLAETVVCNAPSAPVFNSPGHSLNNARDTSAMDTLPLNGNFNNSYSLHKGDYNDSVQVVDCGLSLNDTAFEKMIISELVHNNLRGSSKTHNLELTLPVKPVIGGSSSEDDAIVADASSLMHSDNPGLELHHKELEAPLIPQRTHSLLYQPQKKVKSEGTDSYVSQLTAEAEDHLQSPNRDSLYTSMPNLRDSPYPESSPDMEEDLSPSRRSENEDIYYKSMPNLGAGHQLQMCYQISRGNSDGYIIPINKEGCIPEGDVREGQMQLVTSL
Substance,binding [1],binding [2]
GluGlu-tagged Gi1(Q306K) (from UniProt P63096 1-354),binds,binds
GluGlu-tagged Gq (from UniProt P50148 1-359),,binds
GluGlu-tagged wild-type Gi1 (from UniProt P63096 1-354),,no binding
